{"source": "patent US11753626B2", "about": "“Tumor cell suspension cultures and related methods” (Beijing Percans Oncology Co., Ltd., priority 2016, dated 2023)", "test_system": "tumor cell clusters from colorectal cancer patients", "assay": "ex vivo drug sensitivity assay of tumor cell clusters in suspension culture (Edu incorporation)", "format": "cell-based, human", "conditions": "FIG. 4; test conditions of FIG. 3B; short-term suspension culture in defined growth medium", "description": "Briefly, the non-tumor tissues and the necrotic fractions were carefully removed from the tumor specimen. The tumor tissues were cut into small pieces less than 1 mm in diameter using scissors. Minced tumor fractions were transferred into a sterile 100-ml triangle glass flask loaded with a magnet stir bar. A 10-15 ml digestion media containing 0.25 U/ml Liberase DH was added into the minced tumor tissues to start enzyme digestion. The enzyme mixture was incubated at 37° C. for 1-2 hours with moderate stirring. The partially digested tumor cell clusters were filtered through a 100-μm cell retainer. The filtrates were re-filtered through a 40-μm cell restrainer. […]\nFor ex vivo drug sensitivity assays, the tumor cell clusters were recovered in a defined growth medium overnight. […] The incorporated Edu was detected by Click-iT reaction where fixed cells were incubated with a reaction mixture containing 1× Click-iT Edu reaction buffer, CuSO4, and azide-conjugated Alexa Fluor dye in the dark. […]\nFor image acquisition and analysis, the stained tumor cells were imaged by a high-content screening (HCS) platform (Thermo Scientific Cellomics ArrayScan XTi HCS reader). […] From the images two fluorescent signals were obtained from the HCS reader. Blue fluorescent signals recorded nucleus signals stained with Hoechst 33342, and green fluorescent signal detected the Edu incorporated in newly synthesized DNA. […]", "note": "At least one structure is not confirmed: it was looked up by name or label, or the drawing left a doubt.", "data": [{"molecule": "CCN(CC)CCNC(=O)c1c(C)[nH]c(/C=C2\\C(=O)Nc3ccc(F)cc32)c1C", "note": "[sunitib]", "values": [{"measurement": "growth of tumor cell clusters (inhibition by tested drug)", "result": "not completely inhibited"}]}]}
